PubChem BioAssay AID1159578 – Peter MacCallum Cancer Centre – 2015
Test: 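Genome-wide hunt for genes controlling movement of lymphatic endothelial cells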 (primary screen). Cells: human lymphatic endothelial cells. Reagents: siRNA pool against human genes, 40 nM. Timing: 48 h after transfection. Measured: 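High-content imaging of dye-stained cells in a scratch assay measures filled wound area and nuclei per well; duplicate means given as ratio to mock and robust z-score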. Reading the numbers: migration robust z-score: higher = faster migration into the scratch; nuclei per well: higher = more cells in the well. Hit rule: 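Pools averaging fewer than 3300 nuclei are never called; remaining pools count as changed when migration robust z lies outside -2 to 2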. Calls: active = migration changed; inactive = no migration change, or too few cells.
Shown is one part, drawn at random, of about 18,000 deposited reagents. About 1,030 of them (5.7%) were called active. 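Inactive calls also include pools with fewer than 3300 nuclei, whose migration was not assessed.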 Raw values vary from plate to plate and are shown uncorrected. Further read-outs or replicates are left out here.

target gene	migration robust z-score	nuclei per well, duplicate mean	activity call
CHORDC1	-0.44	7216	inactive
HPS6	0.7	5520	inactive
IVL	0.08	5712	inactive
TF	-1.04	4979	inactive
MED23	0.05	5700	inactive
OFD1	0.08	7090	inactive
RFLNB	-1.68	6807	inactive
NAT9	0.36	4269	inactive
PDLIM1	0.83	4541	inactive
NDUFS8	0.32	6434	inactive
CAPSL	-1.03	6010	inactive
ARL14	-0.9	4046	inactive
SLC38A12	0.1	6502	inactive
VPS9D1	0.94	5116	inactive
FHL2	-0.5	5485	inactive
NUSAP1	-0.02	5898	inactive
OLFML3	-0.69	6225	inactive
RNF4	-0.36	6248	inactive
CD160	-2.21	4048	active
EVI5L	0.99	6576	inactive
MYH4	0.94	5444	inactive
HSFY2	-0.5	6544	inactive
NKD2	0.83	6120	inactive
TCEAL7	-0.58	6113	inactive
ADH1B	0.52	5647	inactive
SOST	-0.08	4536	inactive
TAL1	0.2	6754	inactive
FAM217A	-0.87	5139	inactive
RTN4	0.96	6533	inactive
UTS2B	1.63	3976	inactive
PARP12	0.94	5796	inactive
KHDRBS3	-0.82	5954	inactive
SPIN4	-0.11	6133	inactive
RRBP1	0.58	6612	inactive
LMNB2	0.38	5916	inactive
H2BW1	0.06	7013	inactive
MFHAS1	-0.39	5646	inactive
ATP2B4	0.99	6799	inactive
WNT9A	-0.8	5783	inactive
